PubChem BioAssay AID1259405 | NCATS, 2018

- Purpose: 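Mouse-designed siRNAs used to find CHO productivity engineering targets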 (primary screen)
- System: Chinese hamster CHO-K1 ovary cells with stable secreted eGFP expression
- Reagent: single siRNA against mouse genes, 0.8 pmol siRNA per well (2 µl of 400 nM stock)
- Time to read-out: 3 days
- Measurement: 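Per-well intracellular GFP measured by laser scanning cytometry, plus viability from ATP luminescence, each relative to plate median of non-targeting control wells, in %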
- Reading the numbers: GFP, % of control: higher = more GFP per well, higher productivity; viability (ATP), % of control: higher = more viable cells (more ATP)
- Hit rule: 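a knock-down is called active if GFP reaches 120% or more of non-targeting control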
This is one part, drawn at random, of about 50,000 reagents. Of all reagents, about 4,000 (8%) were called active. 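Mouse siRNA library applied to hamster cells; one well for each siRNA.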 Entries without a mark were called inactive. Reagents against one gene are numbered here.

| gene symbol | siRNA no. | GFP, % of control | viability (ATP), % of control |
| --- | --- | --- | --- |
| Zrsr2-ps1 | 1 | 58.2 | 74 |
| Zrsr2-ps1 | 2 | 79.4 | 82.1 |
| Sun2 | 1 | 32.1 | 47.8 |
| Sun2 | 2 | 51.7 | 60.3 |
| Sun2 | 3 | 70.6 | 71.9 |
| Acad10 | 1 | 66.6 | 72.7 |
| Acad10 | 2 | 101 | 107 |
| Lratd1 | 1 | 88.9 | 77.1 |
| Lratd1 | 2 | 65.5 | 75.9 |
| Lratd1 | 3 | 101 | 112 |
| Tmed10 | 1 | 73.1 | 73.9 |
| Tmed10 | 2 | 99.9 | 107 |
| Tmed10 | 3 | 104 | 74.5 |

Next part, starting with the last 3 of the part before.
| gene symbol | siRNA no. | GFP, % of control | viability (ATP), % of control |
| --- | --- | --- | --- |
| Tmed10 | 1 | 73.1 | 73.9 |
| Tmed10 | 2 | 99.9 | 107 |
| Tmed10 | 3 | 104 | 74.5 |
| Ireb2 | 1 | 89.8 | 103 |
| Ireb2 | 2 | 57 | 77.5 |
| Cdyl | 1 | 112 | 104 |
| Cdyl | 2 | 88.3 | 63.9 |
| Cdyl | 3 | 100 | 102 |
| Myo10 | 1 | 80.5 | 95.2 |
| Myo10 | 2 | 84.7 | 83 |
| Gpx4 | 1 | 79.7 | 94.7 |
| Gpx4 | 2 | 80.1 | 59.4 |
| Gpx4 | 3 | 56.9 | 103 |
| Dvl1 | 1 | 80.7 | 68.7 |
| Dvl1 | 2 | 69.2 | 71 |
| Or5d46 | 1 | 112 | 18.2 |
| Or5d46 | 2 | 117 | 84 |
| Or5d46 | 3 | 101 | 69.9 |
| Sec11a | 1 | 49.1 | 51.7 |
| Sec11a | 2 | 55.5 | 68.9 |
| Sec11a | 3 | 41.6 | 53 |
| Wnt10a | 1 | 116 | 74.7 |
| Wnt10a | 2 | 62.7 | 60 |
| Wnt10a | 3 | 102 | 65.7 |
